According to paper PMC5618791 (Chemical Science, 2017):
Some peptides are written in HELM: one residue between dots, names in brackets for other building blocks, links after the first $. The same purity stands for every peptide and may come from a single statement.

Key:
[1] = general procedure: Fmoc solid-phase peptide synthesis; Rink Amide MBHA; HCTU and DIPEA in DMF; conditions: whole synthesis, UV-LCMS trace (200-300 nm), scale 0.1 mmol
[2] = general procedure: Fmoc solid-phase peptide synthesis; Rink Amide MBHA resin (0.36 mmol g-1); HCTU and DIPEA in DMF; conditions: for isolated mass / isolated yield: whole synthesis; for isolated yield: scale of the general procedure 0.1 mmol; for cyclisation yield / final purity (method not given): cyclisation step; for final purity (method not given): UV-LCMS trace (200-300 nm)

Substance	final purity (method not given) [1]	isolated mass [2]	isolated yield [2]	cyclisation yield [2]	final purity (method not given) [2]
PEPTIDE1{[ac].K.E.T.A.A.[hCys].K.F.E.[hCys].Q.H.M.D.S.[am]}$PEPTIDE1,PEPTIDE1,7:R3-11:R3$$$V2.0	higher than 95%	8.1 mg	22.2%		
PEPTIDE1{[ac].K.E.T.A.A.C.K.F.E.C.Q.H.M.D.S.[am]}|CHEM1{[Mal]}$PEPTIDE1,CHEM1,7:R3-1:R1|PEPTIDE1,CHEM1,11:R3-1:R2$$$V2.0				65%	higher than 95%
PEPTIDE1{[ac].K.E.T.A.A.C.K.F.E.C.Q.H.M.D.S.[am]}$PEPTIDE1,PEPTIDE1,7:R3-11:R3$$$V2.0	higher than 95%	6.3 mg	27.1%		
PEPTIDE1{[ac].E.D.I.I.R.N.I.A.R.H.L.A.C.V.G.D.C.[Nle].D.R.S.I.W.[am]}|CHEM1{[Mal]}$PEPTIDE1,CHEM1,14:R3-1:R1|PEPTIDE1,CHEM1,18:R3-1:R2$$$V2.0				52%	higher than 95%
PEPTIDE1{[ac].K.E.T.A.A.[hCys].K.F.E.[hCys].Q.H.M.D.S.[am]}|CHEM1{[Mal]}$PEPTIDE1,CHEM1,7:R3-1:R1|PEPTIDE1,CHEM1,11:R3-1:R2$$$V2.0				56%	higher than 95%
